According to US20230192846A1:
No constants are given. Whether binding was seen depends on the method and setting. Some entries that bind do so weakly or less than the wild type.

Amino acid sequences for entries named in this document (tags omitted). A change or cut given only in a name is not applied to a line headed by its entry. Chains listed by the source or under a name are the forms on record and can include a tag or linker.
T327M (Q01974, form named): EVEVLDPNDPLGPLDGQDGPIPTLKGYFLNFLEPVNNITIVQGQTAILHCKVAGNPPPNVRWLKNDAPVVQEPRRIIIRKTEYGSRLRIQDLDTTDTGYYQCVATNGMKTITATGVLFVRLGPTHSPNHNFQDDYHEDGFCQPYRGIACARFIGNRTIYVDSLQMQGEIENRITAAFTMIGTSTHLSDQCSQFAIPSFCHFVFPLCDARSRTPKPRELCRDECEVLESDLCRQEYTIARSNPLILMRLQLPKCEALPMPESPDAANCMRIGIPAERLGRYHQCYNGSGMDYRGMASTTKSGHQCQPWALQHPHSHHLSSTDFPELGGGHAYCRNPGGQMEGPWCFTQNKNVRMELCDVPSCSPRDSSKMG
UniProt Q9Z138: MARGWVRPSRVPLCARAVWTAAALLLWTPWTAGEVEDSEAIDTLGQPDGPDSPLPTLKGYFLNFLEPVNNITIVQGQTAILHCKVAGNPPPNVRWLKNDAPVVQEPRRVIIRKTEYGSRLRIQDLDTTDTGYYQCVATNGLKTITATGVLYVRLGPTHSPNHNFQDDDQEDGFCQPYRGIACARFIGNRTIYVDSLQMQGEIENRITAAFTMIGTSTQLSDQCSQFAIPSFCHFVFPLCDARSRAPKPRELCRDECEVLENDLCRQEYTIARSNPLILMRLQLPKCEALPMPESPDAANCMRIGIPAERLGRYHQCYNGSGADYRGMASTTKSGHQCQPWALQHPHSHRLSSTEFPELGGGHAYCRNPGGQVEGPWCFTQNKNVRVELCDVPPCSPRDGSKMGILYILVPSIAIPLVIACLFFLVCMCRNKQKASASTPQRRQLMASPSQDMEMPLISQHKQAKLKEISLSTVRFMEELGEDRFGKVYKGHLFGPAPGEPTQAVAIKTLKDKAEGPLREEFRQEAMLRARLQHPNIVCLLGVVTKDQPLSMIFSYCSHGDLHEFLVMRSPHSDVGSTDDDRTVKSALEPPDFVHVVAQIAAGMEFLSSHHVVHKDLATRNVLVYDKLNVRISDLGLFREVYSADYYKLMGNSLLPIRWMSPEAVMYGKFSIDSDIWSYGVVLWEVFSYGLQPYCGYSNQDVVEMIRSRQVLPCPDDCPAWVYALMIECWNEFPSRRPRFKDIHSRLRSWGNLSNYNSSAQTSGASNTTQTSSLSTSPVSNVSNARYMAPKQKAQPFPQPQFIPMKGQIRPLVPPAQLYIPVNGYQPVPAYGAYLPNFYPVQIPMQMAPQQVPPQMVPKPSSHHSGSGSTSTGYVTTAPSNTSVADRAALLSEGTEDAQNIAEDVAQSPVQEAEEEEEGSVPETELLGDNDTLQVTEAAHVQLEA

Experiments:
Experiment in all cases: dot blot; recombinant protein on nylon membrane, probed with the mAb, HRP anti-mouse IgG
[1] = target: recombinant human ROR2 with methionine 386 replaced by the valine of mouse ROR2 (human) (UniProt Q01974)
T327M (human) = T327M (human) (UniProt Q01974)
[2] = target: recombinant human ROR2 with histidine 349 replaced by the arginine of mouse ROR2 (human) (UniProt Q01974)
h1-111 aa (human;mouse) = h1-111 aa (human;mouse) (UniProt Q01974+Q9Z138)
h1-160 aa (human;mouse) = h1-160 aa (human;mouse) (UniProt Q01974+Q9Z138)
[3] = target: recombinant human ROR2 with aspartic acid 354 replaced by the glutamic acid of mouse ROR2 (human) (UniProt Q01974)
hKringle (mouse;human) = hKringle (mouse;human) (UniProt Q9Z138+Q01974)

Row | binding [1] | binding (T327M (human)) | binding [2] | binding (h1-111 aa (human;mouse)) | binding (h1-160 aa (human;mouse)) | binding [3] | binding (hKringle (mouse;human)) | Binder
1 | binds | binds | – | – | – | – | – | 6E6 anti-human ROR2 monoclonal antibody (antibody, IgG1, V domains shown) VH: EVQLVESGGDLVKPGGSLKLSCAASGFTFSNYGMSWVRQTPDKRLEWVATISSGGGYTHYVDSVKGRFTISRDNANHILYLQMSSLNSEDTAMYYCARHPRDFSYAMDYWGQGTSVTVSS VL: DIVMTQSHKFMSTSIGDRVSITCKASQDVGHYVAWYQQKPGQSPKLLIYWASTRHTGVPDRFTGSGSGTDFTLTISNVQSEDLADYFCQQYNIYPWTFGGGSKLAIK
2 | – | – | – | binds | binds | – | – | 5G3 anti-human ROR2 monoclonal antibody (antibody, IgG2a, V domains shown) VH: EVQLVESGGGLVQPKGSLKLSCAASGFTFNTYAMNWVRQAPGKGLEWVARIRSKSNNYATYYADSVKDRFTISRDDSQSMLHLQMNNLKTEDTAMYYCVRHGSSLYYAMDYWGQGTSVTVSS VL: DIQMTQSPSSLSASLGERVSLTCRASQEISGYLGWLQQKPDGTIKRLIYAASTLDSGVPKRFSGSRSGSAYSLTISSLESEDFADYYCLQYASYPYTFGGGTKLEIK

Further lines, the binder ahead of its results:

Row | Binder | binding [1] | binding (T327M (human)) | binding [2] | binding (h1-111 aa (human;mouse)) | binding (h1-160 aa (human;mouse)) | binding [3] | binding (hKringle (mouse;human))
3 | 4G9 anti-human ROR2 monoclonal antibody (antibody, IgG2a, V domains shown) VH: QVQLQQSGAELVRPGASVKLSCKALGYTFTDYEMHWVKQTPVHGLEWIGAIHPGSGGTAYNQKFKGKATLTADKSSSTAYMELSRLTSEDSAVYYCTRRRPRFYGMDYWGQGTSVTVSS VL: DIVMTQAAPSVPVTPGESVSISCRSSKSLLHSNGNTYLYWFLQRPGQSPQLLIYRMSNLASGVPDRFSGSGSGTAFTLRISRVEAEDVGVYYCMQHLEYPLTVGAGTKLELK | – | binds | binds | binds | binds | binds | –
4 | 5C11 anti-human ROR2 monoclonal antibody (antibody, IgG1, V domains shown) VH: EVQLVESGGDLVKPGGSLKLSCAASGFTFSNYGMSWVRQTPDKRLEWVATISSGGGSTYYPDSVKGRFTISRDNAKNSLYLQMSSLKSEDTAMYYCARHPYDYGYYFDYWGQGTTLTVSS VL: DILLTQSPDILSVSPGERVSFSCRASQSIGTSIHWYQQRTNGSPRLLIKYASESISGIPSRFSGSGSGTDFTLSINSVESEDIADYYCQQSDSWPFPFGSGTKLEKK | – | binds | – | – | – | – | binds
